Paper PMC4359267
These are yes or no findings as the source states them, for the method shown. Binding seen in cells or lysates may run through a third protein. Binding can be weak; no strength is given.

Sequences of proteins named here, by UniProt entry; tags and fusion partners are left off. A change or cut given only in a name is not applied to a line headed by its entry.
UniProt P23258: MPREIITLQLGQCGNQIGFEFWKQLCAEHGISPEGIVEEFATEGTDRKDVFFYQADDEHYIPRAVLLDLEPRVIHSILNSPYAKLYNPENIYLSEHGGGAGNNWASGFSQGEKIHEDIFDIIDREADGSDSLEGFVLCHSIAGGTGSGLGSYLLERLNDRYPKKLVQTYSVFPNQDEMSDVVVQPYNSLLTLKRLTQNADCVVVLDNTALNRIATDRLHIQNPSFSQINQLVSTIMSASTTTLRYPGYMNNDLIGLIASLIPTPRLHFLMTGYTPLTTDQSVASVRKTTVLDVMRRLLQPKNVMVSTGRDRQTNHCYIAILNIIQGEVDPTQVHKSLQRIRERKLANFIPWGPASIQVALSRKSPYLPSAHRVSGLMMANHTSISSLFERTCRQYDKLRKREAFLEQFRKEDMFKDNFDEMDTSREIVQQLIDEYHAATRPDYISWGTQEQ

Target: T1, EphrinB1 (endogenous, SCC1 cells) (human (endogenous in SCC1)) (UniProt P98172)
T1 sequence: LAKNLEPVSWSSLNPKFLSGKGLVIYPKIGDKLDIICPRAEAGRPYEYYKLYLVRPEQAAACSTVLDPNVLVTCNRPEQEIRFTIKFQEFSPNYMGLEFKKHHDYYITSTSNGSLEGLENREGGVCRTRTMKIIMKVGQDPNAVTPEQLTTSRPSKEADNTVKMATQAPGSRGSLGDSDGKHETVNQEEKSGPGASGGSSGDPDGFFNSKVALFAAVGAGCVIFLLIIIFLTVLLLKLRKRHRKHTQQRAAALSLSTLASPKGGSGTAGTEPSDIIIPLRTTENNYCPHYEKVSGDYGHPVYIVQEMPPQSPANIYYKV
Experiment: co-IP; endogenous EphrinB1 immunoprecipitated overnight with anti-ephrinB1 (R&D Systems AF473) from SCC1 whole cell lysate and mitotic (serum starvation, release, mitotic shake-off), soluble and insoluble fractions; lysis buffer 50mM Tris HCl pH 7.5, 150mM NaCl, 5mM EDTA, 1% Triton X-100; western blots for α/β tubulin, γ tubulin and α tubulin

Substance | binding
α tubulin (endogenous, SCC1 cells) (human (endogenous in SCC1)) | binds
α/β tubulin (endogenous, SCC1 cells) (human (endogenous in SCC1)) (complex) | binds
γ tubulin (endogenous, SCC1 cells) (from UniProt P23258) | binds
